Results are given in words; binding and its absence hold for the method and conditions named.

By UniProt entry, the sequences of proteins in these tests, tags left out.
UniProt P0C2Z6: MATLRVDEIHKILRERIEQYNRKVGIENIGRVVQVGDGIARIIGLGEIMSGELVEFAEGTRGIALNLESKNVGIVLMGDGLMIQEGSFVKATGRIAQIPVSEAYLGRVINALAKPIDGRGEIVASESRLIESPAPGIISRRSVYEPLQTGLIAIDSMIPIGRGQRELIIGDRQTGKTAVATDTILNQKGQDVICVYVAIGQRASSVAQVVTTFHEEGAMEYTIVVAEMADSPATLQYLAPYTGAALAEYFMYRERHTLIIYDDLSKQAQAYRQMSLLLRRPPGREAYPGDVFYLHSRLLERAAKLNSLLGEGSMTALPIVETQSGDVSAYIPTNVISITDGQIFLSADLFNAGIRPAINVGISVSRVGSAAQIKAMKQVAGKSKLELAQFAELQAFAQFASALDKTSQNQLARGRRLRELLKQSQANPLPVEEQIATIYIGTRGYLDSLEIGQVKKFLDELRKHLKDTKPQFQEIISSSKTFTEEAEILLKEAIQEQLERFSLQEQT
UniProt P0C355: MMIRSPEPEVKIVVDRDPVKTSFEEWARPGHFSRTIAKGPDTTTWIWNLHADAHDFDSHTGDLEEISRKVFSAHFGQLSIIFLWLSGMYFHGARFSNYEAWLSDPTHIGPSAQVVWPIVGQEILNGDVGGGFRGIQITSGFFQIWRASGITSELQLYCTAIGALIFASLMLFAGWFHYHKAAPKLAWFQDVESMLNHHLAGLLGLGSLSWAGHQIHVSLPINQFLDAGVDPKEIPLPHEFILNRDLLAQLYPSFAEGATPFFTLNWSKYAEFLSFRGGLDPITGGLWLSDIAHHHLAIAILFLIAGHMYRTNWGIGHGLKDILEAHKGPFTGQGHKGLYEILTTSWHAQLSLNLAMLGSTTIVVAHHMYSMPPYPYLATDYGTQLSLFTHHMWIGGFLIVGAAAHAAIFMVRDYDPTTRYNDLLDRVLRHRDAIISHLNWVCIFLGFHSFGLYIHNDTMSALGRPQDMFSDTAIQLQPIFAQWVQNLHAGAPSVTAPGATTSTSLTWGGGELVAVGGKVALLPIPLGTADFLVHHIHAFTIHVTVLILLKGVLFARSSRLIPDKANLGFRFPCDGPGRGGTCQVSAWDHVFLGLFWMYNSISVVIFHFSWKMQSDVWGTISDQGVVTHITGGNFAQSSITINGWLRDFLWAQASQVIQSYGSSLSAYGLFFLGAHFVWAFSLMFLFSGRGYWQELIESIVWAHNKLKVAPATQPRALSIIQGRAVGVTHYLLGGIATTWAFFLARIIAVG

The target of the assay is T1, YL1 (YELLOW LEAF 1), full-length, in pGBKT7 (rice (Oryza sativa)) (UniProt Q0E3V2).
T1 sequence: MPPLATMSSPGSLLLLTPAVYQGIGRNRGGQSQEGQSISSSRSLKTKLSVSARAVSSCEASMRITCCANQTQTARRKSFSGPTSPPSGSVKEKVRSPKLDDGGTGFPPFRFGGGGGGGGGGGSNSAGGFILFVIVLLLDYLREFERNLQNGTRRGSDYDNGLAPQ
Nature of the assay: two-hybrid; Matchmaker Gold system (Clontech); YL1 in pGBKT7 (bait), subunits in pGADT7 (prey); S. cerevisiae AH109; growth on SD/-Ade/-His/-Leu/-Trp medium containing X-α-gal.

For the substance “AtpA (α subunit of chloroplast ATP synthase), in pGADT7 (from UniProt P0C2Z6 1-507)”, the binding result is recorded as “no binding”.

For the substance “PsaA (PSI core subunit), in pGADT7 (from UniProt P0C355 1-750)”, the binding entry was “no binding”.
